In paper PMC12554370:
The exact form of at least one protein or probe is not confirmed. The comparison behind a weaker result is the experiment's own reference, which may not be listed here.

By UniProt entry, the sequences of proteins in these tests, tags left out.
UniProt A0A498JN73, entry or part of it: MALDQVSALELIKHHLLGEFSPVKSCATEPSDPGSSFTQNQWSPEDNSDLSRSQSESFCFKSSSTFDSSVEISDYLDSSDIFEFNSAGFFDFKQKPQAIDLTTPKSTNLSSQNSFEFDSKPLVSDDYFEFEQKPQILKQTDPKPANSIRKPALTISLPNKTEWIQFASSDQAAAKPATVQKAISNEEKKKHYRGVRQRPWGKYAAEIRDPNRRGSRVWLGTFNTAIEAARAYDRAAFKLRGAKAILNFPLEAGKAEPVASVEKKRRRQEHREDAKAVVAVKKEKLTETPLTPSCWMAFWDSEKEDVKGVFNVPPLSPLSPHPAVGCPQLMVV

Target: MdERF5L (Malus domestica) (UniProt A0A498JN73)
Test: EMSA
Conditions: increasing MdWRKY9 (interacts with MdERF5L); LightShift Chemiluminescent EMSA kit (Thermo), per manufacturer's protocol; pH and temperature not stated; recombinant protein; protein details: GST (pGEX-4T-1); label: biotin (hot probe)

Q: Does “AAAATAGAGGAGAAAAATGGCCGACAAAATTTGTTGTGGCTACTA (double strand) [MdACS1-DRE probe]” bind?
A: binds more weakly
